Source: article PMC6694222
These are yes or no findings as the source states them, for the method shown. Binding seen in cells or lysates may run through a third protein. A yes stands for co-enrichment or nearness to the bait. Other partners may have been found.

Protein sequences, listed by entry. Tags and fused reporters are not part of them. Residues count along the entry.
UniProt P02545, residues 1-646: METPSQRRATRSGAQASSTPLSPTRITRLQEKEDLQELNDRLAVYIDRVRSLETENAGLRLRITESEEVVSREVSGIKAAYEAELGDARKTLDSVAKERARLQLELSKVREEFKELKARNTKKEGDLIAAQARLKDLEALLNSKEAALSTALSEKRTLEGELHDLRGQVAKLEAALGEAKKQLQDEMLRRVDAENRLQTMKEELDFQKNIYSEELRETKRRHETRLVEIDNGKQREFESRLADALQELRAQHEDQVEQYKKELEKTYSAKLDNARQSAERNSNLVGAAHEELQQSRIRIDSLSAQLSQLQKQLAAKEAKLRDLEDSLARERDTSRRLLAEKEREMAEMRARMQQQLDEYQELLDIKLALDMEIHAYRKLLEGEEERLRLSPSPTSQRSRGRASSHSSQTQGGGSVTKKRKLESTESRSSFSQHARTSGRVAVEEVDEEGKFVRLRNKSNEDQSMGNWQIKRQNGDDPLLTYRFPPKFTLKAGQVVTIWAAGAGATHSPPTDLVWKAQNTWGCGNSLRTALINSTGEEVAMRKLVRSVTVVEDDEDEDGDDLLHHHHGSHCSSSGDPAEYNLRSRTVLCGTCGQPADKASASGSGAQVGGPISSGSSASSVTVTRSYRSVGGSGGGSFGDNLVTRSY

Target: T1, mammalian STE20-like protein kinase 2 (MST2) (human (endogenous in HeLa)) (UniProt Q13188)
T1 sequence: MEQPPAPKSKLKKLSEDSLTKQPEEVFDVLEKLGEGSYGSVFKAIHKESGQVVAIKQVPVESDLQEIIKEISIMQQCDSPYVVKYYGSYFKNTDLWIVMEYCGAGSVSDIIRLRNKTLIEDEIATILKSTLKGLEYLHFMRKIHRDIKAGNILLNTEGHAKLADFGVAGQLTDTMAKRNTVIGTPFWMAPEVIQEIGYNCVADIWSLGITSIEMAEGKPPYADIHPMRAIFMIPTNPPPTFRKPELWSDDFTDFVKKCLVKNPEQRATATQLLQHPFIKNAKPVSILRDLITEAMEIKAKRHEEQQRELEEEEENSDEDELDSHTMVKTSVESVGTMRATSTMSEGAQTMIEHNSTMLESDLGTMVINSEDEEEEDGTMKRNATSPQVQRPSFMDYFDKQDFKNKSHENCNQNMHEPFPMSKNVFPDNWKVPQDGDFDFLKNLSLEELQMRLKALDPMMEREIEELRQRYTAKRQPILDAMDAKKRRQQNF
Test: affinity purification with mass spectrometry; MST2 antibody (ab52641) or rIgG with protein A Dynabeads, 10 mg HeLa lysate (1% NP-40, 150 mM NaCl, 20 mM HEPES, 0.5 mM EDTA), 3 h at 4 C, low pH glycine elution, LC-MS/MS

binding: binds
Substance: Lamin A/C (from UniProt P02545 1-646)
